According to paper PMC8894945:

Assays:
[1] = target: T1, triple HA-tagged uL5c (chloroplast ribosomal protein uL5c) (Chlamydomonas reinhardtii) (UniProt Q8HTL1); assay: affinity purification with mass spectrometry; triple-HA-tagged uL5c (chloroplast ribosomes) as bait; cells cross-linked in vivo with 0.37% formaldehyde for 10 min; cells at 25°C (control) or 15 min / 180 min at 40°C; enrichment over untagged control (one-sided t-test, FDR < 0.05, S0 = 1) in at least one condition
T1 sequence: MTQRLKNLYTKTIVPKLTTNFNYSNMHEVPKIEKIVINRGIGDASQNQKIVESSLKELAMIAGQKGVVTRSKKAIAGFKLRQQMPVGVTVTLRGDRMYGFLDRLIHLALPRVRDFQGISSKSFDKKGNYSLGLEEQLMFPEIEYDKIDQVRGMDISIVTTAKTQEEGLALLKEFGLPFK

[2] = target: T1, triple HA-tagged uL5c (chloroplast ribosomal protein uL5c) (Chlamydomonas reinhardtii); assay: affinity purification with mass spectrometry; as a1, the control condition alone: cells kept at 25°C, no heat

| Binder | binding [1] | binding [2] |
| --- | --- | --- |
| PSAG (protein, UniProt P14224 31-126) ALDPQIVISGSTAAFLAIGRFVFLGYQRREANFDSTVGPKTTGATYFDDLQKNSTIFATNDPAGFNIIDVAGWGALGHAVGFAVLAINSLQGANLS | binds |  |
| PSAK (protein, UniProt P14225 27-113) DGFIGSSTNLIMVASTTATLAAARFGLAPTVKKNTTAGLKLVDSKNSAGVISNDPAGFTIVDVLAMGAAGHGLGVGIVLGLKGIGAL | binds |  |
| YCF3 (protein, UniProt O20031 1-172) MPRTQRNDNFIDKTFTVVADILLKVLPTSQREKQAFSYYRNGMSAQAEGEYAEALQNYYEAMRLEVDAYDRSYILYNIGLIHTSNGEHGRALEYYYQALERNPSLSSALNNIAVIYHYRGEQAIENGQSEISQILFEKAADYWKEAIRLAPTNYIEALNWLKMTGRLTGLAT | binds | no binding (only control conditions (25°C, no heat)) |
| CHLB (protein, UniProt P36437 1-687) MKLAYWMYAGPAHIGVLRVSSSFKNVHAIMHAPLGDDYFNVMRSMLERERDFTPVTASIVDRHVLARGSQEKVVENITRKNKEETPDLILLTPTCTSSILQEDLHNFVESALAKPVQIDEHADHKVTQQSALSSVSPLLPLEENTLIVSELDKKLSPSSKLHINMPNICIPEGEGEGEQTKNSIFVKSATLTNLSEEELLNQEHHTKTRNHSDVILADVNHYRVNELQAADRTLEQIVRYYISQAQKQNCLNITKTAKPSVNIIGIFTLGFHNQHDCRELKRLFNDLGIQINEIIPEGGNVHNLKKLPQAWFNFVPYREIGLMTAMYLKSEFNMPYVAITPMGLIDTAACIRSICKIITTQLLNQTATVQEPSKFIYPKATSLEQTNILETSQKETILKDNPDSGNTLSTTVEEIETLFNKYIDQQTRFVSQAAWFSRSIDCQNLTGKKAVVFGDATHSAAMTKLLAREMGIKVSCAGTYCKHDADWFREQVSGFCDQVLITDDHTQVGDMIAQLEPAAIFGTQMERHVGKRLDIPCGVISAPVHIQNFPLGYRPFLGYEGTNQIADLVYNSFNLGMEDHLLQIFGGHDSENNSSIATHLNTNNAINLAPGYLPEGEGSSRTSNVVSTISSEKKAIVWSPEGLAELNKVPGFVRGKVKRNTEKYALQKNCSMITVEVMYAAKEALSA | binds |  |
| CHLN (protein, UniProt P29683 1-545) MKPLKLKRLIMENNKSHATNLSLGGPFQGNCMPINQYFSKNQPNRGSSSSEKRSSLLPLWESKNAADGFSIVSHNVLLDGATTILNLNSFFECETGNYHTFCPISCVAWLYQKIEDSFFLVIGTKTCGYFLQNALGVMIFAEPRYAMAELEESDISAQLNDYKELKRLCLQIKQDRNPSVIVWIGTCTTEIIKMDLEGMAPRLETEIGIPIVVARANGLDYAFTQGEDTVLSAMALASLKKDVPFLVGNTGLTNNQLLLEKSTSSVNGTDGKELLKKSLVLFGSVPSTVTTQLTLELKKEGINVSGWLPSANYKDLPTFNKDTLVCGINPFLSRTATTLMRRSKCTLICAPFPIGPDGTRVWIEKICGAFGINPSLNPITGNTNLYDREQKIFNGLEDYLKLLRGKSVFFMGDNLLEISLARFLTRCGMIVYEIGIPYLDKRFQAAELALLEQTCKEMNVPMPRIVEKPDNYYQIRRIRELKPDLTITGMAHANPLEARGITTKWSVEFTFAQIHGFTNTREILELVTQPLRRNLMSNQSVNAIS | binds |  |

These are yes or no findings as the source states them, for the method shown. In cells and extracts the contact can be indirect. A yes stands for co-enrichment or nearness to the bait. Other partners may have been found. For part of these data: A no says only that the protein was not detected with the bait. Sequences can lack the tags named with a protein.
